Measured values published in paper PMC10913264.
These are yes or no findings as the source states them, for the method shown. Binding seen in cells or lysates may run through a third protein. Some results given as binding are weak or reduced against the parent protein; the word gives no strength.

Protein sequences, listed by entry. Tags and fused reporters are not part of them. Residues count along the entry.
UniProt P08581, residues 25-1390: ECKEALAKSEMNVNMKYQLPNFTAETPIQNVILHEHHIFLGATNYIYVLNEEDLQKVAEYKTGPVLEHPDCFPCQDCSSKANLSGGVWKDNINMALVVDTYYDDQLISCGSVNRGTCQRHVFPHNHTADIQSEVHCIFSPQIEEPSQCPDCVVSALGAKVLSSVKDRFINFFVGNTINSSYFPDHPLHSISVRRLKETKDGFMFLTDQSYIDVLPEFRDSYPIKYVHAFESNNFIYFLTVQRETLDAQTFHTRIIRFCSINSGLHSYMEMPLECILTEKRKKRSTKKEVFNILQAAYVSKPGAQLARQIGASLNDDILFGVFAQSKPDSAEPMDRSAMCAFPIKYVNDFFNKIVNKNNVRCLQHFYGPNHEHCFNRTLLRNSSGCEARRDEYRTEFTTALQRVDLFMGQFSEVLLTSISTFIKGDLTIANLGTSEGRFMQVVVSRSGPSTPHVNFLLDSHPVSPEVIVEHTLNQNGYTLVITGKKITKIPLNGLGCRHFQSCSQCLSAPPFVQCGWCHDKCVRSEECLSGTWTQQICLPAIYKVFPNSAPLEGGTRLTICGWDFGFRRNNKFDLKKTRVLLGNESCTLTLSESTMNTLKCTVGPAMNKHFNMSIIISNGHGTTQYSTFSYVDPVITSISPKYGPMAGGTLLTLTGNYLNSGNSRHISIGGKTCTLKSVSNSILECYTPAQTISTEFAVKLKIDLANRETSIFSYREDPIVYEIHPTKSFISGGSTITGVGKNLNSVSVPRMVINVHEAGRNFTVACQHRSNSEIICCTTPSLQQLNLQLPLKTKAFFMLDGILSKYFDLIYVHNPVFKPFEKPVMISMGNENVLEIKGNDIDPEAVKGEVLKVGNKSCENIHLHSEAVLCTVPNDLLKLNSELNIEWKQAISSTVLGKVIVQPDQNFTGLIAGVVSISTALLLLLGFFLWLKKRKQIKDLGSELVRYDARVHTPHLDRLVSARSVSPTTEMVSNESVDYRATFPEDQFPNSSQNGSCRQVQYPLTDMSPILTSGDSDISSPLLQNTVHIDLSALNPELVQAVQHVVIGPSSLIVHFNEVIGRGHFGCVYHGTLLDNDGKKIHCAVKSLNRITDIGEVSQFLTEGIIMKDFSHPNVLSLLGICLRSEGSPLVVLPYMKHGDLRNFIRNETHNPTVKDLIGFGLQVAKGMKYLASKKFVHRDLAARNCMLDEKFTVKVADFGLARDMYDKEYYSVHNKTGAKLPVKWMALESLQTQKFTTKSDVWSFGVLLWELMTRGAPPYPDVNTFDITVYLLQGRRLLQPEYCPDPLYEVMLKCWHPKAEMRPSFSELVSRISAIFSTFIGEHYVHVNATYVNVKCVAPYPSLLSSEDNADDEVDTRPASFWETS
UniProt P42771: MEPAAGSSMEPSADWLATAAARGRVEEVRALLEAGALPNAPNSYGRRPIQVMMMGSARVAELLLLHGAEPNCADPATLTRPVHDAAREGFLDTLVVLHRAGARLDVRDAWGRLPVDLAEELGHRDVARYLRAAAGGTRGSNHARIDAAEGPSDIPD

B1: Mucin 20 (MUC20) (protein, UniProt Q8N307 26-709)
chain: GPSTRRADTAMTTDDTEVPAMTLAPGHAALETQTLSAETSSRASTPAGPIPEAETRGAKRISPARETRSFTKTSPNFMVLIATSVETSAASGSPEGAGMTTVQTITGSDPREAIFDTLCTDDSSEEAKTLTMDILTLAHTSTEAKGLSSESSASSDSPHPVITPSRASESSASSDGPHPVITPSRASESSASSDGPHPVITPSRASESSASSDGPHPVITPSRASESSASSDGPHPVITPSRASESSASSDGPHPVITPSRASESSASSDGPHPVITPSRASESSASSDGPHPVITPSRASESSASSDGPHPVITPSRASESSASSDGLHPVITPSRASESSASSDGPHPVITPSRASESSASSDGPHPVITPSWSPGSDVTLLAEALVTVTNIEVINCSITEIETTTSSIPGASDTDLIPTEGVKASSTSDPPALPDSTEAKPHITEVTASAETLSTAGTTESAAPDATVGTPLPTNSATEREVTAPGATTLSGALVTVSRNPLEETSALSVETPSYVKVSGAAPVSIEAGSAVGKTTSFAGSSASSYSPSEAALKNFTPSETPTMDIATKGPFPTSRDPLPSVPPTTTNSSRGTNSTLAKITTSAKTTMKPPTATPTTARTRPTTDVSAGENGGFLLLRLSVASPEDLTDPRVAERLMQQLHRELHAHAPHFQVSLLRVRRG
B2: MUC20 overexpressed from a lentiviral vector (MUC20 OE) (protein, UniProt Q8N307 26-709)
chain: B1 chain

Tests used:
[1] = biological target: MET proto-oncogene, receptor tyrosine kinase (MET) (human (endogenous in KAS-6/1 and U266)) (UniProt P08581); assay: co-IP; MET antibody, lysate of control or MUC20 OE-transfected PI-resistant KAS-6/1 and U266 cells, bound proteins by Western blot; rabbit IgG as negative control
[2] = biological target: His-tagged wild-type MET (WT-MET) (UniProt P08581); assay: co-IP; His antibody (66005-1-Ig) with protein A/G magnetic beads, lysate of WT-MET or MUT-MET-transfected PI-resistant KAS-6/1 and U266 cells, bound proteins by Western blot
[3] = biological target: MET proto-oncogene, receptor tyrosine kinase (MET) (human (endogenous in KAS-6/1 and U266)) (UniProt P08581); assay: co-IP; MET antibody (ab216330) with protein A/G magnetic beads overnight at 4 °C, non-denaturing lysate of PI-resistant KAS-6/1 and U266 cells, bound proteins by Western blot; rabbit IgG as negative control

Molecule	binding [1]	binding [2]	binding [3]
Cyclin-dependent kinase inhibitor 2 A (CDKN2A) (from UniProt P42771 1-156)	binds	binds	binds
B1	–	–	binds
B2	binds	–	–
